Measured values from PMC10178869.
These are yes or no findings as the source states them, for the method shown.

Molecular target: E. coli Aquaporin Z (AqpZ) (E. coli) (UniProt P60844)
Assay: SDS-PAGE with or without heating; purified AqpZ nanodiscs (ND) or AqpZ in OG micelles, heated to 70 °C or unheated; both purified

B1: E. coli Aquaporin Z (AqpZ) (protein, UniProt P60844 1-231)
chain: MFRKLAAECFGTFWLVFGGCGSAVLAAGFPELGIGFAGVALAFGLTVLTMAFAVGHISGGHFNPAVTIGLWAGGRFPAKEVVGYVIAQVVGGIVAAALLYLIASGKTGFDAAASGFASNGYGEHSPGGYSMLSALVVELVLSAGFLLVIHGATDKFAPAGFAPIAIGLALTLIHLISIPVTNTSVNPARSTAVAIFQGGWALEQLWFFWVVPIVGGIIGGLIYRTLLEKRD
binding: no binding (condition: heated to 70 °C for SDS-PAGE)
